Measured values taken from patent US12491217B2, “Compositions and methods for promoting healthy neural development in an unborn baby” (The Regents of the University of California, priority 2019, dated 2025).

Experiment: Metabolomics of fetal brain at E14.5
Assay type: in vivo, C57Bl/6J mice
Settings: metabolite level in E14.5 fetal brain; for fold of change ABX/SPF: ANOVA contrast ABX/SPF; for fold of change GF/ABX: ANOVA contrast GF/ABX; for fold of change GF/SPF: ANOVA contrast GF/SPF; for fold of change GF/Sp: ANOVA contrast GF/Sp; for fold of change Sp/ABX: ANOVA contrast Sp/ABX; for fold of change Sp/SPF: ANOVA contrast Sp/SPF

SMILES | fold of change ABX/SPF | fold of change GF/ABX | fold of change GF/SPF | fold of change GF/Sp | fold of change Sp/ABX | fold of change Sp/SPF
CC(C)(CO)[C@@H](O)C(=O)NCCC(=O)NCCS [compound 3658] | 0.78 | 0.74 | 0.57 | 0.88 | 0.84 | 0.65
O=C1O[C@H]([C@@H](O)CO)C(O)=C1O [compound 3662] | 1.07 | 0.57 | 0.60 | 0.91 | 0.63 | 0.67
O=C1O[C@H]([C@@H](O)CO)C(=O)C1=O [compound 3663] | 0.24 | 2.77 | 0.66 | 0.78 | 3.56 | 0.85
O=C(O)C(O)C(O)CO (stereo not drawn) [compound 3664] | 0.51 | 2.35 | 1.20 | 1.12 | 2.10 | 1.08
O=C(O)C(=O)O [compound 3667] | 0.61 | 1.62 | 0.99 | 0.96 | 1.68 | 1.03
O=C(O)C(O)C(O)C(O)C(O)CO (stereo not drawn) [compound 3668] | 0.74 | 1.05 | 0.78 | 0.98 | 1.07 | 0.80
CN1c2c(nc(N)[nH]c2=O)NCC1CNc1ccc(C(=O)NC(CCC(=O)O)C(=O)O)cc1 (stereo not drawn) [compound 3698] | 0.92 | 0.87 | 0.80 | 0.71 | 1.22 | 1.12
C=CC1=C(C)c2cc3[n-]c(cc4[n-]c(cc5nc(cc1n2)C(C)=C5C=C)c(C)c4CCC(=O)O)c(CCC(=O)O)c3C.[Fe+2] [compound 3714] | 0.89 | 0.46 | 0.41 | 0.97 | 0.47 | 0.42
C=CC1=C(C)/C(=C/c2[nH]c(Cc3[nH]c(/C=C4\NC(=O)C(C)=C4C=C)c(C)c3CCC(=O)O)c(CCC(=O)O)c2C)NC1=O [compound 3715] | 0.78 | 0.84 | 0.66 | 1.25 | 0.68 | 0.53
C=CC1=C(C)C(=CC2=NC(=Cc3[nH]c(C=C4NC(=O)C(C)=C4C=C)c(C)c3CCC(=O)O)C(CCC(=O)O)=C2C)NC1=O [compound 3718] | 0.92 | 0.78 | 0.71 | 1.08 | 0.72 | 0.66
Cc1ncc(C[n+]2csc(CCO)c2C)c(N)n1 [compound 3727] | 0.67 | 0.84 | 0.56 | 0.88 | 0.96 | 0.64
Cc1ncc(C[n+]2csc(CCOP(=O)(O)O)c2C)c(N)n1 [compound 3728] | 0.84 | 0.99 | 0.83 | 0.93 | 1.06 | 0.89
Cc1ncc(CO)c(CN)c1O [compound 3751] | 0.95 | 0.61 | 0.58 | 0.72 | 0.85 | 0.81
